According to article PMC7819943, “Rice protein-binding microarrays: a tool to detect cis-acting elements near promoter regions in rice”:
Some of the results follow.

Chains of the proteins cited; added tags and fusions are not shown.
UniProt Q0JBA9, entry or part of it: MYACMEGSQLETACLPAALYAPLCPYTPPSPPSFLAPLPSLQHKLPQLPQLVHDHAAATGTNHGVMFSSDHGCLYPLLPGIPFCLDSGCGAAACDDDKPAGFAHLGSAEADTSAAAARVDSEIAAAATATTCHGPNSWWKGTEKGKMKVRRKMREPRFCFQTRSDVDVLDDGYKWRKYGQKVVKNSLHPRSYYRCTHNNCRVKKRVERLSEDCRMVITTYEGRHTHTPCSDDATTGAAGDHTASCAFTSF

The sequences below were run against OsWRKY34 (Oryza sativa, UniProt Q0JBA9 1-250) (assay: protein-binding microarray (RPBM); PBS, 2% BSA, 51.3 ng/ul salmon testes DNA, 50 uM zinc acetate, 200 nM TF, 25 C, 1 h; high values mean tight binding). Details: protein: recombinant; tags: N-terminal polyhistidine and DsRed monomer fusion (pET32a); label: CyDye5-dUTP incorporated in the synthesized complementary strand; 3' TTTTT single-stranded linker to array surface; dsDNA, one strand shown.
Summary of the method: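 The binding signal is fluorescence intensity per feature, in arbitrary units, read on an Axon 4000B scanner. Polyhistidine- and DsRed-tagged transcription factors (N-terminal fusions) from E. coli BL21-CodonPlus were purified on Ni–NTA and applied at 200 nM for 1 h at 25 °C to a double-stranded, BSA-blocked custom Agilent array in buffer with 50 µM zinc acetate.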
“CGTTGAGCGTACAGTGCATTTCCTTTCCTACATGTCGCCTCGGAGTCACCTAGTGCAG” was tested, and the binding signal was 10500 fluorescence intensity (a.u.). In the case of “CTTTCCTTCGTTGTCAACTCTTCATGCATCCATTTTGATTCGGAGTCACCTAGTGCAG”, the binding signal is reported as 9250 fluorescence intensity (a.u.). For “AATAAAAACATTGTTTCTGTTTTTTCTTTTTTCTAATTTTCGGAGTCACCTAGTGCAG”, the binding signal was 8740 fluorescence intensity (a.u.). In the case of “GATTTAGAGTTGGAGTCAGTCGGTTTGACCAGCCACATGCCGGAGTCACCTAGTGCAG”, the binding signal is reported as 8690 fluorescence intensity (a.u.). In the case of “GCCTTTTTCATGTTGCACGCTATCATTTCGAGATCAAGACCGGAGTCACCTAGTGCAG”, the binding signal is reported as 10500 fluorescence intensity (a.u.). “TCTACGGCGGGGCGGCGGCGTGGAGGCAACTCGGCACGGGCGGAGTCACCTAGTGCAG” was tested, and the binding signal was 9960 fluorescence intensity (a.u.). For “GCCTTTTTCTTCTTCTTCTTCTTCTTTCTCTCTCCTGCAGCGGAGTCACCTAGTGCAG”, the binding signal was 9670 fluorescence intensity (a.u.). In the case of “GGCTTTTTTGTTGGGCTTCTTTTGATCAAAAACGTTGTTTCGGAGTCACCTAGTGCAG”, the binding signal is reported as 12000 fluorescence intensity (a.u.). In the case of “GTGCTTGCCTGCAAATATTGATTTATACATACAGACCGGTCGGAGTCACCTAGTGCAG”, the binding signal is reported as 13600 fluorescence intensity (a.u.). “CACATGTTTGACTATTCGTCTTATTTAAAAATTTTATGCACGGAGTCACCTAGTGCAG” was tested, and the binding signal was 8770 fluorescence intensity (a.u.). With “ATATTCTTTATCTACCTATCGCCATTGCTATTTTTTTAATCGGAGTCACCTAGTGCAG” the binding signal was 9370 fluorescence intensity (a.u.). “GTGCGGGAGACGTGGTGGTGGGTGCTGCTGCTGTGGATCCCGGAGTCACCTAGTGCAG” was tested, and the binding signal was 8470 fluorescence intensity (a.u.). For “CTTTCCTCTACACTAGTGGGTGGCGCCGTGGGTGGGAGGGCGGAGTCACCTAGTGCAG”, the binding signal was 12200 fluorescence intensity (a.u.). “CACTTCTATTGGTTCTTTGTCTGGGAGTAGCAGCATAAGTCGGAGTCACCTAGTGCAG” was tested, and the binding signal was 8540 fluorescence intensity (a.u.). “ATTTCTTGTTGGCTTCTCGATAAAATCAATCAGGTTTCAACGGAGTCACCTAGTGCAG” was tested, and the binding signal was 10200 fluorescence intensity (a.u.). In the case of “ACCGCCCTTGCCTCGGCCCGGCCCATCGTCGTGCCAGGTCCGGAGTCACCTAGTGCAG”, the binding signal is reported as 8410 fluorescence intensity (a.u.). With “GATTAATTCACTACTGCTTCCTCCATGTCATATTATAAGACGGAGTCACCTAGTGCAG” the binding signal was 8490 fluorescence intensity (a.u.). “ATTCTCTCTTCTTCCGTTCTTCTCTATGATTTCTATATAACGGAGTCACCTAGTGCAG” was tested, and the binding signal was 8690 fluorescence intensity (a.u.). For “CAATCTCCTCAATCCTCTTCTTCTCAGACACATGATTTTACGGAGTCACCTAGTGCAG”, the binding signal was 8980 fluorescence intensity (a.u.). “CTAATTTATTCCCTGCAACATTCCATTCCGTTAACTTGCACGGAGTCACCTAGTGCAG” was tested, and the binding signal was 9500 fluorescence intensity (a.u.). “GCCGAGCAGTAATTATGTTTTGCTCGATCCATCCATCAATCGGAGTCACCTAGTGCAG” was tested, and the binding signal was 8700 fluorescence intensity (a.u.). “CATGCCCCAGGTGCATATATATGCTAATTACACCACCTAACGGAGTCACCTAGTGCAG” was tested, and the binding signal was 8760 fluorescence intensity (a.u.). “TTATCGTCTTTTCTTTGGCTGCTGTCATGAGGACATGTCTCGGAGTCACCTAGTGCAG” was tested, and the binding signal was 8680 fluorescence intensity (a.u.). With “CTTTTTACTTGCACTGTTTGACTACTCATCTTATTTAAAACGGAGTCACCTAGTGCAG” the binding signal was 14100 fluorescence intensity (a.u.). “TCTGGGCTCTCTTTCCTTAGTTCGTCTTCATCTGCCCATCCGGAGTCACCTAGTGCAG” was tested, and the binding signal was 8850 fluorescence intensity (a.u.). With “CGCCGCCATCGCCGTCCTCCTCCACCGCGTCGCCGACGGCCGGAGTCACCTAGTGCAG” the binding signal was 8260 fluorescence intensity (a.u.). In the case of “TTCTAAAATTTTGTACGTATCTATCTACCAGTGTCACTTACGGAGTCACCTAGTGCAG”, the binding signal is reported as 9810 fluorescence intensity (a.u.). In the case of “GTTCAATTTTGTCATAATCGGCTGCTTCTTCGCTTCAATTCGGAGTCACCTAGTGCAG”, the binding signal is reported as 9190 fluorescence intensity (a.u.). In the case of “CTCCGCCTCCACGACCGACTGCCGCCGCTCGTCCGCGCCTCGGAGTCACCTAGTGCAG”, the binding signal is reported as 9510 fluorescence intensity (a.u.). With “TACTTCCTAGCTTCATATTACATCAGTTTCATGTATCTTGCGGAGTCACCTAGTGCAG” the binding signal was 11500 fluorescence intensity (a.u.). In the case of “GACCGTTGCATTGACATCCTTTTCTTTTTGGTAAATTTTGCGGAGTCACCTAGTGCAG”, the binding signal is reported as 9590 fluorescence intensity (a.u.). “TTCCAAACTCACCTCTGTTTTCTTCACGCGCATACTTTTCCGGAGTCACCTAGTGCAG” was tested, and the binding signal was 9260 fluorescence intensity (a.u.). For “AACAGTTTTGCCACTTCTTTACCTATTTTTTTACAGTAAACGGAGTCACCTAGTGCAG”, the binding signal was 10400 fluorescence intensity (a.u.). For “ATTCTTCGCTGCGCGGCTGCGCGCGCGCCATCTCGCTGATCGGAGTCACCTAGTGCAG”, the binding signal was 12400 fluorescence intensity (a.u.). In the case of “CACTCCGTCCATTTACAAATAACTGATGAATTTGTCTTTTCGGAGTCACCTAGTGCAG”, the binding signal is reported as 8400 fluorescence intensity (a.u.). “CTTCTTTCTACTACCTTTATCCTAGAAAGAACATCTTTCTCGGAGTCACCTAGTGCAG” was tested, and the binding signal was 8560 fluorescence intensity (a.u.). With “AAGTTAAATTGACAATCCTACCTGCTCGTCAAATTTCAACCGGAGTCACCTAGTGCAG” the binding signal was 8520 fluorescence intensity (a.u.). For “CATCGCATCGGGCAAGTCCTACAGCCATATCCTCCAGTTCCGGAGTCACCTAGTGCAG”, the binding signal was 8780 fluorescence intensity (a.u.). In the case of “TTCCGGCATATGTAGGCCGATCGGTTGACTTGTCACGTCCCGGAGTCACCTAGTGCAG”, the binding signal is reported as 10000 fluorescence intensity (a.u.). In the case of “CACTTTTACTGCTACACCCGTATGCGGGGATGGGGATGGTCGGAGTCACCTAGTGCAG”, the binding signal is reported as 12700 fluorescence intensity (a.u.). With “GACAAACCCTGAGTTTCCGTGCCCAACGTTTGACCATCAGCGGAGTCACCTAGTGCAG” the binding signal was 8660 fluorescence intensity (a.u.). “ATGTGTCCAAATCTGAATGCATGGGCTACTCACACGACTCCGGAGTCACCTAGTGCAG” was tested, and the binding signal was 8480 fluorescence intensity (a.u.).
